Test: general procedure: Fmoc solid-phase peptide synthesis; H-L-Thr(t-Bu)-ol-2-chlorotrityl resin; HOBt/HBTU with NMM; HATU for unnatural amino acids and DOTA
Details: whole synthesis, RP-HPLC, Kinetex 2.6 um C18 column, cyclic, sequence written open

D-Phe-Abu(γ-N3)-L-Tyr-D-Trp-L-Lys(Dde)-L-Thr-L-amino-5-pentanoic-acid-L-Thr(ol)
final HPLC purity: >95%
